Compound in the assay: Nc1nc2c(ncn2[C@@H]2O[C@H](COP(=O)(O)OP(=O)(O)OP(=O)(O)O)[C@@H](O)[C@H]2O)c(=O)[nH]1
Put plainly: dose-dependent thermal stabilisation call (2D-TPP, DLPTP, 10% FDR) (binary (1 = stabilised)); higher = stabilised by the compound. Conditions: system: Jurkat gel-filtered lysate; concentration range 1-500 µM.

The chains behind the UniProt entries cited, without tags or fusion partners. Where a name states a change or a piece, a line headed by the entry shows the natural chain unless it says otherwise.
UniProt Q8WVJ2: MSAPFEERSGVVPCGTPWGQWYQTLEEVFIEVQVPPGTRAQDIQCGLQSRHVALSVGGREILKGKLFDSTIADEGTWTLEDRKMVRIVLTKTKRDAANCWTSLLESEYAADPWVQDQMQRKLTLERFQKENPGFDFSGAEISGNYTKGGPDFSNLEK
UniProt Q92597: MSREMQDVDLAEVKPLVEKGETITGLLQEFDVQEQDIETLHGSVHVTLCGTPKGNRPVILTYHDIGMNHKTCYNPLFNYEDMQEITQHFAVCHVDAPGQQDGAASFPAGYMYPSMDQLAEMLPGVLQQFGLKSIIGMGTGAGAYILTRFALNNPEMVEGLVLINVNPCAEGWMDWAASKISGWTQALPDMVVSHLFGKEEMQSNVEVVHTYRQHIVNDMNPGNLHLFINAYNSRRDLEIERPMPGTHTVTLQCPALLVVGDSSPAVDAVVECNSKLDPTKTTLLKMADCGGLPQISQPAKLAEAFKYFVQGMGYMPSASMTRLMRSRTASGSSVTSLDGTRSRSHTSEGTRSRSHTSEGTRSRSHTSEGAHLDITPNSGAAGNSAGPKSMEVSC
UniProt Q9NXX6: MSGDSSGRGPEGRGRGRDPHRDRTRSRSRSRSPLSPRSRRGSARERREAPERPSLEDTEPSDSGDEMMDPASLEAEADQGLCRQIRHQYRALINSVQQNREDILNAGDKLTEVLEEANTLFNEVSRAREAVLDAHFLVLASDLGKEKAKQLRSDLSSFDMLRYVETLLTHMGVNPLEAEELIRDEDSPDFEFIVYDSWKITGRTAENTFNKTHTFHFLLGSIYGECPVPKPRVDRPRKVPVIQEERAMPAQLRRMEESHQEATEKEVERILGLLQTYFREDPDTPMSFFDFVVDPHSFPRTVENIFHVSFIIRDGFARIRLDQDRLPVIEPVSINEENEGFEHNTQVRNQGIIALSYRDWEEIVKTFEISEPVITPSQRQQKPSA
UniProt Q9BRJ7: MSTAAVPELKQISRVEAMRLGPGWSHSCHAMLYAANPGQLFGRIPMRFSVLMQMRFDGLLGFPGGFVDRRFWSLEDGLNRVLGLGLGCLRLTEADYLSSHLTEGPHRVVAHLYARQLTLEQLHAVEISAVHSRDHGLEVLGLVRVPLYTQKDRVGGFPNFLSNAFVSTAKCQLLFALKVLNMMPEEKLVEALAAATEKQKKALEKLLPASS
UniProt Q12769: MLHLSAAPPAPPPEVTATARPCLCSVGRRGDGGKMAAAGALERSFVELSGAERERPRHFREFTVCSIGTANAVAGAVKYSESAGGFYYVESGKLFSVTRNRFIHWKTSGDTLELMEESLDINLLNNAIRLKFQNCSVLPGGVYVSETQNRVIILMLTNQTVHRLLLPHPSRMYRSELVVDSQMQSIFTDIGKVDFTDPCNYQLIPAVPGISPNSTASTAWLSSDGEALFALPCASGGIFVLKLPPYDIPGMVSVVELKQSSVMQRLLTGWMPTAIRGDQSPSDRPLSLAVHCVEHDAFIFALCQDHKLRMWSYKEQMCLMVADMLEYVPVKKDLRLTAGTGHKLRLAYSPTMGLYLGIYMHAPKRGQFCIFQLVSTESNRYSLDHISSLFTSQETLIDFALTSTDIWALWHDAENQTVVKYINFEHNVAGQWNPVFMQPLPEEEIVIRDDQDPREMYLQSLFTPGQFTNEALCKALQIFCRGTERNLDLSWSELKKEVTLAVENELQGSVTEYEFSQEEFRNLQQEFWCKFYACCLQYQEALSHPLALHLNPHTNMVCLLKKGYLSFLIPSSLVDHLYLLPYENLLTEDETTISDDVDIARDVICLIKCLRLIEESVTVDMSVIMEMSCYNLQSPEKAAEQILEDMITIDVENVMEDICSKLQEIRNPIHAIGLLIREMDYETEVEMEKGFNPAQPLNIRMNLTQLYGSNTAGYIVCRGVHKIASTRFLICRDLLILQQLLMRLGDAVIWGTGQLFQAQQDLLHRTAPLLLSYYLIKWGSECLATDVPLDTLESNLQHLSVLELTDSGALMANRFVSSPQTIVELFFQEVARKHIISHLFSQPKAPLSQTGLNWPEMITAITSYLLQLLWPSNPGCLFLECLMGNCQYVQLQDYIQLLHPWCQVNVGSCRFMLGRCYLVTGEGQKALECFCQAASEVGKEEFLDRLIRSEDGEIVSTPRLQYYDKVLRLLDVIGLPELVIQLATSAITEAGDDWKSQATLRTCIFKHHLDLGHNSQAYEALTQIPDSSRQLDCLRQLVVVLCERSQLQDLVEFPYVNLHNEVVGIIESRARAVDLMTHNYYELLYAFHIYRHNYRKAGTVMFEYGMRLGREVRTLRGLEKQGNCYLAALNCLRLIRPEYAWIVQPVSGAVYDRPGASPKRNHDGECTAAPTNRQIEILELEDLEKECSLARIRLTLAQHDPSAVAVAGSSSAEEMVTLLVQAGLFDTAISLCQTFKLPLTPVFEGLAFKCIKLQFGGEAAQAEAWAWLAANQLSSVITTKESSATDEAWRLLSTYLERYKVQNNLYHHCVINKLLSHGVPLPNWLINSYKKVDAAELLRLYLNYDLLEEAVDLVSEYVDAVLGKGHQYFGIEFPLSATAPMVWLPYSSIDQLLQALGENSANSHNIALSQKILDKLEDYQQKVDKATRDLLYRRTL
UniProt Q53F19: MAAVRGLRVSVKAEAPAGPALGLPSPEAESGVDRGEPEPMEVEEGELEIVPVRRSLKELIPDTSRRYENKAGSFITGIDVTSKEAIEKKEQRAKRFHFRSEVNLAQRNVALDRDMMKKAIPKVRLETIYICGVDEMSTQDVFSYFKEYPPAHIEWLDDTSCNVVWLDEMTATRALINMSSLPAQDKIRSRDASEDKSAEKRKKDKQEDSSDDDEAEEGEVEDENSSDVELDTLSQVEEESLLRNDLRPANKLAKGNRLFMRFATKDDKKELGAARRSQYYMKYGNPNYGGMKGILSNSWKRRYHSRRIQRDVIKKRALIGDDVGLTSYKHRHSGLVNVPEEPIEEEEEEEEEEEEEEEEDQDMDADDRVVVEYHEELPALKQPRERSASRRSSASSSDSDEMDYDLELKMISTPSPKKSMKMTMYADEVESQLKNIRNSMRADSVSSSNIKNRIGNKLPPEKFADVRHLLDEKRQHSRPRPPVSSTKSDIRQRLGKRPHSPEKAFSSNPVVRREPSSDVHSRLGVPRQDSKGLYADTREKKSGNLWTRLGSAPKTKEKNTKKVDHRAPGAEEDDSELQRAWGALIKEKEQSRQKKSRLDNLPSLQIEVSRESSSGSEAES
UniProt Q9Y266: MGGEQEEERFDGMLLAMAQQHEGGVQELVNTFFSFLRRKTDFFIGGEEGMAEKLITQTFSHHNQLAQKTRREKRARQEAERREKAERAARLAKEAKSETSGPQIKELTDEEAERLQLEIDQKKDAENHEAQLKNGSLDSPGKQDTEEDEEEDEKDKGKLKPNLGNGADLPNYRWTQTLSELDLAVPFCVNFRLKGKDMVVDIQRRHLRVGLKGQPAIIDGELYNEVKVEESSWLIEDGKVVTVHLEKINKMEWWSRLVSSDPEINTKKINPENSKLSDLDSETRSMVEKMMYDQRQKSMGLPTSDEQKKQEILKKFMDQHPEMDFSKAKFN
UniProt Q9NPE3: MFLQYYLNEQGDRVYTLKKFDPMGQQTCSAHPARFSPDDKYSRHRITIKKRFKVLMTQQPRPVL
UniProt P43490: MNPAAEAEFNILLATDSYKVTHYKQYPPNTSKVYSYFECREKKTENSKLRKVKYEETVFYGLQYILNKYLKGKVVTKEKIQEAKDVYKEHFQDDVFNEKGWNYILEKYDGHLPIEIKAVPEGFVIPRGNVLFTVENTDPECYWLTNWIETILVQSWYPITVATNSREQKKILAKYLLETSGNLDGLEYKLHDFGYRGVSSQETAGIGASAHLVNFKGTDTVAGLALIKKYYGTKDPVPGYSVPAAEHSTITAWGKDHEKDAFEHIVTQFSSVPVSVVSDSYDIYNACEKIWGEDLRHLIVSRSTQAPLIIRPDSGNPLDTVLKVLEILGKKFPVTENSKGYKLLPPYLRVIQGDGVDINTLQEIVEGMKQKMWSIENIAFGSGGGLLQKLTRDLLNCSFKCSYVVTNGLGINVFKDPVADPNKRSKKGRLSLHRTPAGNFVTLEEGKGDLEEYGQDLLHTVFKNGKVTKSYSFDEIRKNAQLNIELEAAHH

The list shows a part of the results.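 Rule for the calls: active = dose-dependent thermal stabilisation significant by F-test of dose-response against flat model at 10% FDR; inactive = not significant.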

With NUDCD2 (UniProt Q8WVJ2), the “dose-dependent thermal stabilisation call” value is inactive: 0.
With NDRG1 (UniProt Q92597) the figure was inactive: 0; with NSMCE4A (UniProt Q9NXX6), inactive: 0.
As to NUDT16L1 (UniProt Q9BRJ7), the “dose-dependent thermal stabilisation call” value was inactive: 0.
As for NUP160 (UniProt Q12769), the “dose-dependent thermal stabilisation call” value was active: 1.
As for NCBP3 (UniProt Q53F19), the “dose-dependent thermal stabilisation call” value is inactive: 0.
NUDC (UniProt Q9Y266): the “dose-dependent thermal stabilisation call” value was inactive: 0.
For NOP10 (UniProt Q9NPE3), the “dose-dependent thermal stabilisation call” value was inactive: 0.
Take NAMPT (UniProt P43490): the “dose-dependent thermal stabilisation call” value is active: 1.

These data come from the supplement of paper PMC7666118.
